Measurements reported in PubChem BioAssay AID1259405 (NCATS, 2018)
The whole screen tested about 50,000 reagents; this is an unselected part. About 4,000 of them (8%) were called active. 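Mouse siRNA library applied to hamster cells; one well for each siRNA.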 Entries without a mark were called inactive. The numbers tell different reagents against one gene apart. Reagent sequences are not shown.

Assay: 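Mouse-designed siRNAs used to find CHO productivity engineering targets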 (primary screen)
Cell system: Chinese hamster CHO-K1 ovary cells with stable secreted eGFP expression
Reagents: single siRNA against mouse genes, 0.8 pmol siRNA per well (2 µl of 400 nM stock)
Duration: 3 days
Detection: 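Percent of the per-plate non-targeting control median for intracellular GFP per well by laser scanning cytometry and for cell viability by ATP luminescence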
Reading the numbers: GFP, % of control: higher = more GFP per well, higher productivity; viability (ATP), % of control: higher = more viable cells (more ATP)
Rule for the call: 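a knock-down is called active if GFP reaches 120% or more of non-targeting control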

| gene knocked down | reagent | GFP, % of control | viability (ATP), % of control |
| --- | --- | --- | --- |
| Or8c13 | 1 | 83.2 | 43.2 |
| Or8c13 | 2 | 62.2 | 66.1 |
| Or8c13 | 3 | 90.5 | 28.6 |
| Rnase13 | 1 | 122 (active) | 75.2 |
| Rnase13 | 2 | 69.9 | 80.1 |
| Rnase13 | 3 | 104 | 97.3 |
| Slc41a2 | 1 | 72.7 | 86.4 |
| Slc41a2 | 2 | 51 | 60.8 |
| Slc41a2 | 3 | 72.4 | 93.2 |
| Klkb1 | 1 | 47.7 | 70.3 |
| Klkb1 | 2 | 38.2 | 39.8 |
| Klkb1 | 3 | 57.3 | 74.6 |
| Or52ae9 | 1 | 106 | 40.1 |
| Or52ae9 | 2 | 70.2 | 72.3 |
| Or52ae9 | 3 | 50.3 | 79.6 |
| Ablim1 | 1 | 51.4 | 60.4 |
| Ablim1 | 2 | 64.9 | 79 |
| Ablim1 | 3 | 68.4 | 94.8 |
| Kbtbd4 | 1 | 43 | 54.2 |
| Kbtbd4 | 2 | 29 | 78.5 |
| Kbtbd4 | 3 | 71.4 | 92.8 |
| Tlr5 | 1 | 84.7 | 79 |
| Tlr5 | 2 | 139 (active) | 78.3 |
| Tlr5 | 3 | 74.9 | 77.7 |
| Stx19 | 1 | 25.8 | 23.4 |
| Stx19 | 2 | 43 | 58.1 |
| Stx19 | 3 | 45.3 | 28.5 |
| Slc22a4 | 1 | 135 (active) | 67.5 |
| Slc22a4 | 2 | 100 | 77.7 |
| Slc22a4 | 3 | 92.7 | 83.8 |

Next part; the last 3 above are carried over.
| gene knocked down | reagent | GFP, % of control | viability (ATP), % of control |
| --- | --- | --- | --- |
| Slc22a4 | 1 | 135 (active) | 67.5 |
| Slc22a4 | 2 | 100 | 77.7 |
| Slc22a4 | 3 | 92.7 | 83.8 |
| Wipi1 | 1 | 80 | 74.1 |
| Wipi1 | 2 | 92.3 | 59.4 |
| Wipi1 | 3 | 95.1 | 97.2 |
| Reg3b | 1 | 76.1 | 92.5 |
| Reg3b | 2 | 69.3 | 41.1 |
| Reg3b | 3 | 71.9 | 49.6 |
| Cnpy4 | 1 | 98.5 | 68.4 |
| Cnpy4 | 2 | 73.7 | 82.9 |
| Cnpy4 | 3 | 88.4 | 82.5 |
| Islr | 1 | 109 | 98.2 |
| Islr | 2 | 65.2 | 37.7 |
| Islr | 3 | 87.7 | 63.4 |
| Chst14 | 1 | 127 (active) | 107 |
| Chst14 | 2 | 62.1 | 82.7 |
| Chst14 | 3 | 94.2 | 83.9 |
| Cdh26 | 1 | 80.1 | 87 |
| Cdh26 | 2 | 53.8 | 90.6 |
| Cdh26 | 3 | 88.9 | 38.5 |
| Zfp607b | 1 | 36.8 | 44 |
| Zfp607b | 2 | 105 | 80.4 |
| Zfp607b | 3 | 76.7 | 92.3 |
| Ids | 1 | 130 (active) | 88.4 |
| Ids | 2 | 117 | 113 |
| Ids | 3 | 58.5 | 69 |
| Eml6 | 1 | 77.6 | 62.9 |
| Eml6 | 2 | 74 | 82.3 |
| Eml6 | 3 | 128 (active) | 121 |
| Lat | 1 | 54.4 | 54.1 |
| Lat | 2 | 105 | 89.1 |
| Lat | 3 | 98.7 | 97.3 |
| Hmx1 | 1 | 27.2 | 38 |
| Hmx1 | 2 | 93.2 | 90.2 |
| Hmx1 | 3 | 69.9 | 58.8 |
| Eif4e | 1 | 79.5 | 87.8 |
| Eif4e | 2 | 82.8 | 88.5 |
| Eif4e | 3 | 104 | 86.5 |
| Sprr1b | 1 | 41.7 | 89.4 |
| Sprr1b | 2 | 116 | 118 |
| Sprr1b | 3 | 83.8 | 88.4 |
| Or4p21 | 1 | 58.4 | 25.2 |
| Or4p21 | 2 | 108 | 84 |
| Or4p21 | 3 | 80.8 | 110 |
| Ing5 | 1 | 92.9 | 74 |
| Ing5 | 2 | 210 (active) | 178 |
| Relch | 1 | 30.4 | 40.4 |
| Relch | 2 | 70.9 | 98 |
| Relch | 3 | 64.3 | 76.4 |
| Tra2b | 1 | 79.5 | 88.7 |
| Tra2b | 2 | 70.5 | 87.8 |
| Or6b3 | 1 | 66.7 | 43.9 |
| Or6b3 | 2 | 105 | 78.7 |
| Or6b3 | 3 | 115 | 74.8 |
| Eln | 1 | 119 | 113 |
| Eln | 2 | 62.8 | 124 |
